In patent US20170189504A1, “NOVEL PEPTIDES AND COMBINATION OF PEPTIDES FOR USE IN IMMUNOTHERAPY AGAINST VARIOUS CANCERS” (immatics biotechnologies GmbH, priority 2015, published 2017):

Assays:
source genes (mRNA) [1] = test: Expression profiling of source genes by in-house RNASeq of tumor and normal tissues (Table 18, FIG. 2); design: species or system human; key: very highly over-expressed in tumors compared to a panel of normal tissues (+++); highly over-expressed in tumors compared to a panel of normal tissues (++); over-expressed in tumors compared to a panel of normal tissues (+); conditions: source gene of peptide; for Expression score OSCAR: esophageal cancer incl. gastric-esophageal junction (N = 11) vs panel of normal tissues; for Expression score NHL: non-Hodgkin lymphoma (N = 10) vs panel of normal tissues; for Expression score NSCLC: non-small cell lung cancer (N = 11) vs panel of normal tissues; for Expression score OC: ovarian cancer (N = 12) vs panel of normal tissues; for Expression score SCLC: small cell lung cancer (N = 10) vs panel of normal tissues
HLA-A*02 = test: Identification and relative LC-MS quantitation of HLA-A*02-presented tumor-associated peptides on tissue samples (presentation profiles, Tables 13A, 13B, 15, FIG. 1); design: species or system human; key to Presentation score NHL / Presentation score CLL / Presentation score BRCA / Presentation score AML / Presentation score GB / Presentation score NSCLC / Presentation score GBC_CCC / Presentation score UEC / Presentation score MEL / Presentation score OSCAR / Presentation score GC / Presentation score UBC / Presentation score OC / Presentation score RCC / Presentation score CRC / Presentation score PCA / Presentation score HCC / Presentation score PC / Presentation score SCLC: specifically presented on tumors (++++); very highly over-presented on tumors compared to a panel of normal tissues (+++); highly over-presented on tumors compared to a panel of normal tissues (++); over-presented on tumors compared to a panel of normal tissues (+); conditions: for Presentation score CLL: chronic lymphocytic leukemia (N = 17) vs panel of normal tissues (N = 262); for Presentation score GBC_CCC: gallbladder adenocarcinoma and cholangiocarcinoma (N = 6) vs panel of normal tissues (N = 262); for Presentation score NHL: non-Hodgkin lymphoma (N = 18) vs panel of normal tissues (N = 262); for Presentation score NSCLC: non-small cell lung cancer (N = 90) vs panel of normal tissues (N = 262); for Peptide Presentation on cancer entities: HLA-A*02-binding tumor-associated peptides
source genes (mRNA) [2] = test: Gene and exon expression of source genes, TCGA tumor samples compared with normal tissue samples (Lonsdale, 2013) (Table 17); design: species or system human; conditions: for Target coverage: over-expression category of source gene, LAML: Acute Myeloid Leukemia (N = 173); for Target coverage: over-expression category of source gene, BLCA: Bladder urothelial carcinoma (N = 408); for Target coverage: over-expression category of source gene, BRCA: Breast cancer (N = 1104), cutoff more than 2-fold above highest 75% percentile of high and medium risk normal tissue samples; for Target coverage: over-expression category of source gene, ESCA: Esophageal cancer (N = 185); for Target coverage: over-expression category of source gene, LUAD: Lung adenocarcinoma (N = 517); for Target coverage: over-expression category of source gene, DLBC: Lymphoid neoplasm diffuse large B-cell lymphoma (N = 48); for Target coverage: over-expression category of source gene, OV: Ovarian serous cystadenocarcinoma (N = 309); for Target coverage: over-expression category of source gene, SKCM: Skin cutaneous melanoma (N = 473); for Target coverage: over-expression category of source gene, STAD: Stomach adenocarcinoma (N = 415); for Target coverage: over-expression category of source gene, UCEC: Uterine corpus endometrial carcinoma (N = 546)
[3] = FIG. 1, A*02 positive samples, only samples with presentation shown
[4] = Table 13A, cancer entities on which the peptide was found presented
[5] = Table 13B, presentation on additional cancer entities
[6] = cutoff more than 2-fold above highest 75% percentile of normal tissue samples

Row | Substance | Expression score OSCAR (source genes (mRNA) [1]) | Expression score NHL (source genes (mRNA) [1]) | Expression score NSCLC (source genes (mRNA) [1]) | Expression score OC (source genes (mRNA) [1]) | Expression score SCLC (source genes (mRNA) [1]) | Presentation score CLL (HLA-A*02; HLA-A*02 peptides) | Presentation score GBC_CCC (HLA-A*02; HLA-A*02 peptides) | Presentation score NHL (HLA-A*02; HLA-A*02 peptides) | Presentation score NSCLC (HLA-A*02; HLA-A*02 peptides) | Peptide Presentation on cancer entities (HLA-A*02; [4]) | Peptide Presentation on cancer entities (HLA-A*02; [5]) | Target coverage: over-expression category of source gene, LAML (source genes (mRNA) [2]; [6]) | Target coverage: over-expression category of source gene, BLCA (source genes (mRNA) [2]; [6]) | Target coverage: over-expression category of source gene, BRCA (source genes (mRNA) [2]) | Target coverage: over-expression category of source gene, ESCA (source genes (mRNA) [2]; [6]) | Target coverage: over-expression category of source gene, LUAD (source genes (mRNA) [2]; [6]) | Target coverage: over-expression category of source gene, DLBC (source genes (mRNA) [2]; [6]) | Target coverage: over-expression category of source gene, OV (source genes (mRNA) [2]; [6]) | Target coverage: over-expression category of source gene, SKCM (source genes (mRNA) [2]; [6]) | Target coverage: over-expression category of source gene, STAD (source genes (mRNA) [2]; [6]) | other results
1 | 8: peptide found in FEN1 (gene looked up) (SIYQFLIAV; listed as Homo sapiens) [compound 8] | + | + | + | + | + | ++++ | ++++ | ++++ | ++++ | NSCLC, CLL, GBC_CCC, AML, NHL | UEC, BRCA, CRC, HNSCC | B (>= 20% of tumors above the cutoff, but <50%) | A (>=50% of tumors above the cutoff) | B (>= 20% of tumors above the cutoff, but <50%) | B (>= 20% of tumors above the cutoff, but <50%) | C (>=5% of tumors above the cutoff, but <20%) | A (>=50% of tumors above the cutoff) | C (>=5% of tumors above the cutoff, but <20%) | A (>=50% of tumors above the cutoff) | C (>=5% of tumors above the cutoff, but <20%) | Expression score GB (source genes (mRNA) [1]; glioblastoma (N = 24) vs panel of normal tissues): +; Expression score UEC (source genes (mRNA) [1]; uterine cancer (N = 10) vs panel of normal tissues): +; number of cancer tissues where the peptide was found to be presented (HLA-A*02; [3]): 14; number of cell lines where the peptide was found to be presented (HLA-A*02; [3]): 2; Presentation score AML (HLA-A*02; HLA-A*02 peptides, acute myeloid leukemia (N = 18) vs panel of normal tissues (N = 262)): ++++; Target coverage: over-expression category of source gene, CHOL (source genes (mRNA) [2]; Cholangiocarcinoma (N = 36), cutoff more than 2-fold above highest 75% percentile of normal tissue samples): C (>=5% of tumors above the cutoff, but <20%); Target coverage: over-expression category of source gene, READ (source genes (mRNA) [2]; Colon and rectal adenocarcinoma (N = 167), cutoff more than 2-fold above highest 75% percentile of normal tissue samples): B (>= 20% of tumors above the cutoff, but <50%); Target coverage: over-expression category of source gene, COAD (source genes (mRNA) [2]; Colon and rectal adenocarcinoma (N = 462), cutoff more than 2-fold above highest 75% percentile of normal tissue samples): B (>= 20% of tumors above the cutoff, but <50%); Target coverage: over-expression category of source gene, GBM (source genes (mRNA) [2]; Glioblastoma multiforme (N = 169), cutoff more than 2-fold above highest 75% percentile of normal tissue samples): B (>= 20% of tumors above the cutoff, but <50%); Target coverage: over-expression category of source gene, LIHC (source genes (mRNA) [2]; Liver hepatocellular carcinoma (N = 374), cutoff more than 2-fold above highest 75% percentile of normal tissue samples): C (>=5% of tumors above the cutoff, but <20%); Target coverage: over-expression category of source gene, LGG (source genes (mRNA) [2]; Lower grade glioma (N = 534), cutoff more than 2-fold above highest 75% percentile of normal tissue samples): C (>=5% of tumors above the cutoff, but <20%); Target coverage: over-expression category of source gene, LUSC (source genes (mRNA) [2]; Lung squamous cell carcinoma (N = 503), cutoff more than 2-fold above highest 75% percentile of normal tissue samples): B (>= 20% of tumors above the cutoff, but <50%); Target coverage: over-expression category of source gene, UCEC (source genes (mRNA) [2]; [6]): B (>= 20% of tumors above the cutoff, but <50%)
2 | 11: peptide found in RNF213 (gene looked up) (ALSPSYLTV; listed as Homo sapiens) [compound 11] | + | + | + | ++ | + | +++ | +++ | +++ | +++ | GC, NSCLC, CLL, BRCA, GBC_CCC, NHL | HNSCC | A (>=50% of tumors above the cutoff) | C (>=5% of tumors above the cutoff, but <20%) | B (>= 20% of tumors above the cutoff, but <50%) | B (>= 20% of tumors above the cutoff, but <50%) | C (>=5% of tumors above the cutoff, but <20%) | C (>=5% of tumors above the cutoff, but <20%) | B (>= 20% of tumors above the cutoff, but <50%) | C (>=5% of tumors above the cutoff, but <20%) | B (>= 20% of tumors above the cutoff, but <50%) | Expression score BRCA (source genes (mRNA) [1]; BRCA tumors vs panel of normal tissues): +; Expression score PC (source genes (mRNA) [1]; pancreatic cancer (N = 26) vs panel of normal tissues): +; Presentation score BRCA (HLA-A*02; HLA-A*02 peptides, breast cancer (N = 17) vs panel of normal tissues (N = 262)): +++; Presentation score GC (HLA-A*02; HLA-A*02 peptides, gastric cancer (N = 29) vs panel of normal tissues (N = 262)): +++; Target coverage: over-expression category of source gene, KIRC (source genes (mRNA) [2]; Clear cell kidney carcinoma (N = 534), cutoff more than 2-fold above highest 75% percentile of normal tissue samples): C (>=5% of tumors above the cutoff, but <20%); Target coverage: over-expression category of source gene, KIRP (source genes (mRNA) [2]; Papillary kidney carcinoma (N = 291), cutoff more than 2-fold above highest 75% percentile of normal tissue samples): B (>= 20% of tumors above the cutoff, but <50%); Target coverage: over-expression category of source gene, UCEC (source genes (mRNA) [2]; [6]): C (>=5% of tumors above the cutoff, but <20%)

For part of these data: Expression grades refer to the transcript from which the peptide derives; gene names, where given, were looked up from the sequence.
